Library screen at single concentrations

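Assay of Toxoplasma gondii numbers, read through their beta-galactosidase reporter with a colour substrate. Concentration: 50 µM. Higher reads as fewer parasites (inferred from which compounds were picked for retests). Size under these conditions: about 18,000 compounds, about 170 of them at 50% or above in at least one test.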

Each number is a percent effect as filed.
How 0% and 100% were set is not recorded. Most values in the screen are low, and negative values occur.
The compounds are a random part of those screened.

structure	Percent Effect
CCc1ccc(C(=O)Nc2ccncc2)o1	-5.666
CCC(CO)NC(=O)C1(c2ccc(F)cc2F)CCC1 (stereo not drawn)	-2.202
N#Cc1c(N2C(=O)C=CC2=O)sc2c1CCCC2	-10.69
O=C1CCC(C(=O)NCC(CO)Cc2cccs2)=NN1 (stereo not drawn)	-3.126
CCCn1ccc(NC(=O)c2cccc(C#N)c2)n1	-66.68
CC(C)CC1C(=O)NCCN1C(=O)Nc1ccncc1 (stereo not drawn)	-30.7
CC(C)(C)OC(=O)N1CCN(c2ccc(N)nc2)CC1	-9.584
CCOCC(=O)N(C)Cc1cccc2cnccc12	-8.533
CCc1nc(CN2CCCN(C(C)=O)CC2)cs1	4.501
Cn1nc2n(c1=O)CCN(Cc1ccc(Br)s1)CC2	49.23
NCC(=O)N1Cc2ccccc2C1	-9.239
Cc1nccn1CCCN1CCCC(C2OCCO2)C1 (stereo not drawn)	12.48
OCCN1CCN(Cc2cn3cc(Br)ccc3n2)CC1	-5.466
CC(C)[C@H](N)C(=O)N1CCc2c(F)cccc2C1	24.46
CC(C)SCC(=O)Nc1cccnc1-n1cccn1	0.2024
O=C1NCC(C(=O)NCCc2ccc(Cl)s2)N1 (stereo not drawn)	-27.27
Cc1n[nH]c(SCC(=O)NC2CCCCC2)n1	32.19
NC(=O)C1=NOC(CNCc2ccccc2Cl)C1 (stereo not drawn)	-7.519
CC(=O)NCc1ccc(-c2csc(N)n2)s1	20.04
Cc1nc(C)c(C(=O)NCCS(=O)(=O)CC(C)C)s1	9.355
CCN(Cc1cc(O)nc2ccccc12)C(=O)C(C)C	2.204
CCOc1nc(N2CC(O)C2)ncc1Br	4.645
CCC(NC(=O)CCn1cncn1)c1nccs1 (stereo not drawn)	-4.484
O=S(=O)(CCN1CCOCC(O)C1)c1ccccc1 (stereo not drawn)	-4.618
CCC(CNC(=O)CCSCC(N)=O)c1ccccc1 (stereo not drawn)	-7.531
O=C(NC1CC(=O)N(Cc2cccc(F)c2)C1)C1CC1 (stereo not drawn)	6.242
CCn1cnnc1CNc1ncccc1F	18.89
COCCOCC(C)NC(=O)C1(C#N)CCC1 (stereo not drawn)	2.082
COc1cccc(F)c1C(C)NC(=O)c1nccn1C (stereo not drawn)	1.546
O=C(CC1Nc2ccccc2NC1=O)NC1CCCC1 (stereo not drawn)	-7.365
CN(CC(N)=O)S(=O)(=O)c1ccc2c(c1)OCCO2	13.37
CCCc1cc(CN(C)C(=O)c2cccs2)n[nH]1	6.023
O=C(CCCc1cn[nH]c1)N1[C@H]2CCNC[C@@H]1CC2	-3.134
CC(=O)NC1C(=O)N(C(C)C)c2ccc(C)cc21 (stereo not drawn)	14.96
CCN(Cc1ccco1)C(=O)c1cc(C(C)=O)c[nH]1	-2.458
COC(=O)CCNS(=O)(=O)c1ccc(OC)cc1	6.02
COCc1nn(CC(=O)N(C)C2CCCCC2)c(=O)o1	-2.614
CNC1CCOCC1	-12.53
Nc1nc(C2CC(O)C2)cc(N2CC(O)C2)n1 (stereo not drawn)	17.51
NS(=O)(=O)N1CCN(Cc2cccc3nonc23)CC1	0.2516
CN(C)c1cc(CNC(=O)c2cncc(Br)c2)ccn1	-18.46
Cc1c(CN)cnn1CC(C)C	1.272
Cc1ccc(S(=O)(=O)N2CCC[C@@H](N)C2)c(C)c1	14.93
O=C(NCCCn1ccnc1)c1cn2ccsc2n1	3.176
Cc1c[nH]c(C(=O)N2CCCN(CC(C)C)CC2)n1	-3.702
Cc1ccccc1-n1nnnc1SCC(=O)NC1CC1	-8.456
NCCC1CNCCO1 (stereo not drawn)	-7.933
CCn1nccc1C(=O)N1C[C@@H](CO)[C@H](N(C)C)C1	-9.278
N#CCCNCc1ccccc1	-2.162
Cc1cnccc1NCCNC(=O)c1cccc(N)n1	-15.23
O=C(NCCN1CCOCC1)c1cc2ccccc2o1	-1.39
NC1(CO)CCc2ccccc21 (stereo not drawn)	-8.909
CSCc1ccc(C(=O)NCCCc2ncc[nH]2)o1	7.095

The values are deposited in ChEMBL (CHEMBL3988442, “University of Dundee, Small-Polar-MMV Screening Library” (2021)).